In patent US20090214535A1:
No constants are given. Whether binding was seen depends on the method and setting. Some binding calls cover weakened binding; strength is not graded here.

By UniProt entry, the sequences of proteins in these tests, tags left out. Where a name states a change or a piece, a line headed by the entry shows the natural chain unless it says otherwise.
UniProt P40238: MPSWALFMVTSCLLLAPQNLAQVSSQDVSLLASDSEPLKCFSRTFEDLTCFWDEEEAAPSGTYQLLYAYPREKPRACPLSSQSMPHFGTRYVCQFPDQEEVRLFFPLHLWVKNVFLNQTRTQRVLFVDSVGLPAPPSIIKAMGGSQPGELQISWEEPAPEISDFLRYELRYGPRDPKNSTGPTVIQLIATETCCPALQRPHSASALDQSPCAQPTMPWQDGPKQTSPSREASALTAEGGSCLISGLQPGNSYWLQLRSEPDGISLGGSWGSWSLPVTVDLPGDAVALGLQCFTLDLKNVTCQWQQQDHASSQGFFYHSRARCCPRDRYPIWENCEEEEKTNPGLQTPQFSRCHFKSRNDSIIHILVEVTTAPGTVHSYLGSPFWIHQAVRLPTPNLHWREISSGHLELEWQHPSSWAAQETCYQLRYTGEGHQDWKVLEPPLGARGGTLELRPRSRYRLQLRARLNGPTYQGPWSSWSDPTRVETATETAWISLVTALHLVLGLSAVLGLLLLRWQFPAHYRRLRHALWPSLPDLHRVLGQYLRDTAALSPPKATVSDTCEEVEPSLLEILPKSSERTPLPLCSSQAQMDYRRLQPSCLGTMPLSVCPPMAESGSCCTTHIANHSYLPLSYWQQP

Assays:
[1] = target: MG10-GST fusion protein (fusion protein of Gln 213 to Ala 231 of human Mpl and GST) (human) (UniProt P40238); test: SPR (Biacore 3000) on immobilized MG10-GST
[2] = target: MG10-GST fusion protein (fusion protein of Gln 213 to Ala 231 of human Mpl and GST) (human) (UniProt P40238); test: SPR (Biacore 3000) on immobilized MG10-GST, told again
[3] = target: MG10-GST fusion protein (fusion protein of Gln 213 to Ala 231 of human Mpl and GST) (human) (UniProt P40238); test: affinity column with immobilized MG10-GST, eluted at pH 3.5

| Binder | binding [1] | binding [2] | binding [3] |
| --- | --- | --- | --- |
| humanized anti-human Mpl antibody hVB22B u2-wz4 sc(Fv)2 (bulk, before separation of the conformational isomers) (scFv) QVQLVQSGPEVKKPGASVKVSCKASGYTFTNSWMNWVRQRPGKGLEWIGRIYPGDGETIYNGKFRVRVTITADESTSTAYMQLSSLRSEDTAVYYCARGYDDYSFAYWGQGTTVTVSSGGGGSGGGGSGGGGSDIVMTQSPLSLPVTPGEPASISCRSSKSLLHSNGNTYLYWFLQKPGQSPQLLIYRMSNLASGVPDRFSGSGSGTDFTLKISRVEAEDVGVYYCMQHIEYPFTFGQGTKLEIKGGGGSGGGGSGGGGSQVQLVQSGPEVKKPGASVKVSCKASGYTFTNSWMNWVRQRPGKGLEWIGRIYPGDGETIYNGKFRVRVTITADESTSTAYMQLSSLRSEDTAVYYCARGYDDYSFAYWGQGTTVTVSSGGGGSGGGGSGGGGSDIVMTQSPLSLPVTPGEPASISCRSSKSLLHSNGNTYLYWFLQKPGQSPQLLIYRMSNLASGVPDRFSGSGSGTDFTLKISRVEAEDVGVYYCMQHIEYPFTFGQGTKLEIK |  |  | binds |
| hVB22B u2-wz4 (v3) sc(Fv)2 (scFv) QVQLVQSGPEVKKPGASVKVSCKASGYTFTNSWMNWVRERPGKGLEWIGRIYPGDGETIYNGKFRVRVTITADESTSTAYMQLSSLRSEDTAVYYCARGYDDYSFAYWGQGTTVTVSSGGGGSGGGGSGGGGSDIVMTQSPLSLPVTPGEPASISCRSSKSLLHSNGNTYLYWFLKKPGQSPQLLIYRMSNLASGVPDRFSGSGSGTDFTLKISRVEAEDVGVYYCMQHIEYPFTFGQGTKLEIKGGGGSGGGGSGGGGSQVQLVQSGPEVKKPGASVKVSCKASGYTFTNSWMNWVRKRPGKGLEWIGRIYPGDGETIYNGKFRVRVTITADESTSTAYMQLSSLRSEDTAVYYCARGYDDYSFAYWGQGTTVTVSSGGGGSGGGGSGGGGSDIVMTQSPLSLPVTPGEPASISCRSSKSLLHSNGNTYLYWFLEKPGQSPQLLIYRMSNLASGVPDRFSGSGSGTDFTLKISRVEAEDVGVYYCMQHIEYPFTFGQGTKLEIK |  |  | binds |

Second part, the binder after the results:

| binding [1] | binding [2] | binding [3] | Binder |
| --- | --- | --- | --- |
| binds | binds |  | hVB22B u2-wz4 sc(Fv)2 peak 1 (bivalent scFv-type conformational isomer) (scFv) QVQLVQSGPEVKKPGASVKVSCKASGYTFTNSWMNWVRQRPGKGLEWIGRIYPGDGETIYNGKFRVRVTITADESTSTAYMQLSSLRSEDTAVYYCARGYDDYSFAYWGQGTTVTVSSGGGGSGGGGSGGGGSDIVMTQSPLSLPVTPGEPASISCRSSKSLLHSNGNTYLYWFLQKPGQSPQLLIYRMSNLASGVPDRFSGSGSGTDFTLKISRVEAEDVGVYYCMQHIEYPFTFGQGTKLEIKGGGGSGGGGSGGGGSQVQLVQSGPEVKKPGASVKVSCKASGYTFTNSWMNWVRQRPGKGLEWIGRIYPGDGETIYNGKFRVRVTITADESTSTAYMQLSSLRSEDTAVYYCARGYDDYSFAYWGQGTTVTVSSGGGGSGGGGSGGGGSDIVMTQSPLSLPVTPGEPASISCRSSKSLLHSNGNTYLYWFLQKPGQSPQLLIYRMSNLASGVPDRFSGSGSGTDFTLKISRVEAEDVGVYYCMQHIEYPFTFGQGTKLEIK |
| binds | binds |  | hVB22B u2-wz4 sc(Fv)2 peak 2 (single chain diabody-type conformational isomer) (scFv) QVQLVQSGPEVKKPGASVKVSCKASGYTFTNSWMNWVRQRPGKGLEWIGRIYPGDGETIYNGKFRVRVTITADESTSTAYMQLSSLRSEDTAVYYCARGYDDYSFAYWGQGTTVTVSSGGGGSGGGGSGGGGSDIVMTQSPLSLPVTPGEPASISCRSSKSLLHSNGNTYLYWFLQKPGQSPQLLIYRMSNLASGVPDRFSGSGSGTDFTLKISRVEAEDVGVYYCMQHIEYPFTFGQGTKLEIKGGGGSGGGGSGGGGSQVQLVQSGPEVKKPGASVKVSCKASGYTFTNSWMNWVRQRPGKGLEWIGRIYPGDGETIYNGKFRVRVTITADESTSTAYMQLSSLRSEDTAVYYCARGYDDYSFAYWGQGTTVTVSSGGGGSGGGGSGGGGSDIVMTQSPLSLPVTPGEPASISCRSSKSLLHSNGNTYLYWFLQKPGQSPQLLIYRMSNLASGVPDRFSGSGSGTDFTLKISRVEAEDVGVYYCMQHIEYPFTFGQGTKLEIK |
|  |  | binds | hVB22B u2-wz4 (v1) sc(Fv)2 (scFv) QVQLVQSGPEVKKPGASVKVSCKASGYTFTNSWMNWVRERPGKGLEWIGRIYPGDGETIYNGKFRVRVTITADESTSTAYMQLSSLRSEDTAVYYCARGYDDYSFAYWGQGTTVTVSSGGGGSGGGGSGGGGSDIVMTQSPLSLPVTPGEPASISCRSSKSLLHSNGNTYLYWFLEKPGQSPQLLIYRMSNLASGVPDRFSGSGSGTDFTLKISRVEAEDVGVYYCMQHIEYPFTFGQGTKLEIKGGGGSGGGGSGGGGSQVQLVQSGPEVKKPGASVKVSCKASGYTFTNSWMNWVRKRPGKGLEWIGRIYPGDGETIYNGKFRVRVTITADESTSTAYMQLSSLRSEDTAVYYCARGYDDYSFAYWGQGTTVTVSSGGGGSGGGGSGGGGSDIVMTQSPLSLPVTPGEPASISCRSSKSLLHSNGNTYLYWFLKKPGQSPQLLIYRMSNLASGVPDRFSGSGSGTDFTLKISRVEAEDVGVYYCMQHIEYPFTFGQGTKLEIK |
